Values of other authors in US20230414599A1, “NICOTINAMIDE, NICOTINAMIDE PRECURSORS AND NICOTINAMIDE METABOLITES AND COMPOSITIONS THEREOF FOR REDUCING THE TIME TO RESOLUTION OF SYMPTOMS IN PATIENTS WITH COVID-19 AND OTHER VIRAL INFECTIONS” (CONARIS RESEARCH INSTITUTE AG, priority 2020, published 2023).
At least one structure is not confirmed: it was looked up by name or label, or the drawing left a doubt.

Tests used:
[1] = system: COVID-19; details: severely ill hospitalized adults; 15 days without; cited from earlier work
[2] = system: COVID-19; details: moderately ill hospitalized COVID-19 patients; cited from earlier work

CCC(CC)COC(=O)[C@H](C)N[P@](=O)(OC[C@H]1O[C@@](C#N)(c2ccc3c(N)ncnn23)[C@H](O)[C@@H]1O)Oc1ccccc1 [Remdesivir, remdesivir]
Median time to recovery [1]: 10 days
Reduction in the time to recovery [2]: no significant reduction
